The record followed here is PMC7029883.

Chains of the proteins cited; added tags and fusions are not shown.
UniProt Q7Z434: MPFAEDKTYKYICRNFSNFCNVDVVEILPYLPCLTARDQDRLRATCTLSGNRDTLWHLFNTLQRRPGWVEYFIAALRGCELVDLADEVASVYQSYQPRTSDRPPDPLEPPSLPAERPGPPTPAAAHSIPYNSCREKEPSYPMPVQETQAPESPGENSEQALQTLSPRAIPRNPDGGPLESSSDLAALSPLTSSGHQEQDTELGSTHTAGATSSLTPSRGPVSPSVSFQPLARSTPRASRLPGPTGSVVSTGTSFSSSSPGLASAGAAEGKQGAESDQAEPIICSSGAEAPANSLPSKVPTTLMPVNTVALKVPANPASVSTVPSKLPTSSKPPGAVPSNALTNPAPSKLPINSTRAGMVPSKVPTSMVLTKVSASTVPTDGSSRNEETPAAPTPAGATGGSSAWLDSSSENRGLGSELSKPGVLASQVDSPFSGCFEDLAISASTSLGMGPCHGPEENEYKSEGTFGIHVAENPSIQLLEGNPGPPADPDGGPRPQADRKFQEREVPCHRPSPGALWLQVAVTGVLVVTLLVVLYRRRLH

These are yes or no findings as the source states them, for the method shown. Binding seen in cells or lysates may run through a third protein. Some binding calls cover weakened binding; strength is not graded here. Where a sequence is shown, tags or fusion partners need not be part of it.

One test deals with Flag-tagged MAVS (human) (UniProt Q7Z434). The test can be described thus: co-IP; HEK293T cells co-transfected with Flag-tagged baits and USP27X constructs; lysis in 0.5% Triton X-100, 20 mM Tris-HCl pH 7.5, 150 mM NaCl, 10% glycerol, 1 mM EDTA; anti-Flag agarose beads 4 h; washes with 300 mM NaCl; immunoblot. (In general: A western blot detects proteins with antibodies after separation by electrophoresis.)

Test [1] deals with T1, Flag-tagged full-length RIG-I (human) (UniProt O95786).
T1 sequence: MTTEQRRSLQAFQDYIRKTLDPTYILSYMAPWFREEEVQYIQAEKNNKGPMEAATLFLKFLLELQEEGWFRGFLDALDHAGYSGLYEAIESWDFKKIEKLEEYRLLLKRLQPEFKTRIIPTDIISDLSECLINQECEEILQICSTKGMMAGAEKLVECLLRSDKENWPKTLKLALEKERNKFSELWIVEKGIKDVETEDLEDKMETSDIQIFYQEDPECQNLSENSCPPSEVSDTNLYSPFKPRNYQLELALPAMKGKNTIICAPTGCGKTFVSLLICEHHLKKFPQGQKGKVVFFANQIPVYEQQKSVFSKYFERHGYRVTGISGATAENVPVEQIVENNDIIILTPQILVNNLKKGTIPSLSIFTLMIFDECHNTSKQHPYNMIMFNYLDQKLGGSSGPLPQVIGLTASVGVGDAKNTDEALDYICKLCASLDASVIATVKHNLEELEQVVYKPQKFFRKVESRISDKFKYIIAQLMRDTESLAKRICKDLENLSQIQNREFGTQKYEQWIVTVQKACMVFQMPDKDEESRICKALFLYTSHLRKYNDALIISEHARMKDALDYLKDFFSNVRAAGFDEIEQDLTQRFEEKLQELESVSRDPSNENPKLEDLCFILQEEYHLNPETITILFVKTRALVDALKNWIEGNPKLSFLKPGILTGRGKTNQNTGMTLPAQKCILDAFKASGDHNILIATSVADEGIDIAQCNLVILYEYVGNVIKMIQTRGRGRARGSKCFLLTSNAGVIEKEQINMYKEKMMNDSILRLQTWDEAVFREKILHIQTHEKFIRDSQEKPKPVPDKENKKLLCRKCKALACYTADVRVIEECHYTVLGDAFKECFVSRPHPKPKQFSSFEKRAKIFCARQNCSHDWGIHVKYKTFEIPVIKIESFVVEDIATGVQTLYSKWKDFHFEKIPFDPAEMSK
The test is described as above.

Test [2] addresses T2, RIG-I (endogenous, HEK293T) (human (endogenous in HEK293T)) (UniProt O95786).
T2 sequence: T1 sequence
The test can be described thus: co-IP; semi-endogenous IP: HEK293T cells transfected with Myc-USP27X or Myc-USP27X-72, mock-infected or infected with SeV for 12 h; lysates with anti-RIG-I antibody overnight at 4°C, then protein A/G beads 2 h; immunoblot.

Test [3] deals with T3, Flag-tagged USP27X (human) (UniProt A6NNY8).
T3 sequence: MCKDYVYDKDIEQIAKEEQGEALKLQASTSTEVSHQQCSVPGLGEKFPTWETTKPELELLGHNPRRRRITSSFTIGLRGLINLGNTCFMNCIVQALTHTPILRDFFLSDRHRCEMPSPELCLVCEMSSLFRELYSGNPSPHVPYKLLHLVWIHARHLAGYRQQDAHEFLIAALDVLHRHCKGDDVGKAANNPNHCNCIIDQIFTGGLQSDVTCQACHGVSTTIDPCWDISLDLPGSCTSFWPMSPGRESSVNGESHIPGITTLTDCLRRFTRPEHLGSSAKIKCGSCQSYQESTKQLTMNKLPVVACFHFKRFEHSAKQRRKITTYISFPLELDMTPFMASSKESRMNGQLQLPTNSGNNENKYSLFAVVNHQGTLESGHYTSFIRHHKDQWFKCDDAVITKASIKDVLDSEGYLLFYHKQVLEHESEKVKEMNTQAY
The test can be described thus: co-IP; HepG2 cells transfected with Flag-USP27X or Flag-USP27X-72, mock-infected or infected with SeV for 18 h; anti-Flag beads; immunoblot for endogenous components.

B1: Myc-tagged USP27X (enzyme, UniProt A6NNY8 1-438)
chain: T3 sequence
As to B1, the binding entry (in the test with Flag-tagged MAVS (human); in test [1]; in test [2]) was “binds” throughout.

B2: RIG-I (endogenous, HepG2) (protein, UniProt O95786-1 1-925)
chain: T1 sequence
With B2, the binding entry in test [3] is reported as “binds”.
